According to patent US12139488B2, “Pyrido[3,2-d]pyrimidine compounds uses thereof for treating a proliferative disease” (Universite de Montreal, priority 2021, dated 2024):
Read-outs that look alike come from different tables or passages of the source. The structures given here were assigned with low confidence; some may be wrong.

Protein sequences, listed by entry. Tags and fused reporters are not part of them.
UniProt P04049, whole entry: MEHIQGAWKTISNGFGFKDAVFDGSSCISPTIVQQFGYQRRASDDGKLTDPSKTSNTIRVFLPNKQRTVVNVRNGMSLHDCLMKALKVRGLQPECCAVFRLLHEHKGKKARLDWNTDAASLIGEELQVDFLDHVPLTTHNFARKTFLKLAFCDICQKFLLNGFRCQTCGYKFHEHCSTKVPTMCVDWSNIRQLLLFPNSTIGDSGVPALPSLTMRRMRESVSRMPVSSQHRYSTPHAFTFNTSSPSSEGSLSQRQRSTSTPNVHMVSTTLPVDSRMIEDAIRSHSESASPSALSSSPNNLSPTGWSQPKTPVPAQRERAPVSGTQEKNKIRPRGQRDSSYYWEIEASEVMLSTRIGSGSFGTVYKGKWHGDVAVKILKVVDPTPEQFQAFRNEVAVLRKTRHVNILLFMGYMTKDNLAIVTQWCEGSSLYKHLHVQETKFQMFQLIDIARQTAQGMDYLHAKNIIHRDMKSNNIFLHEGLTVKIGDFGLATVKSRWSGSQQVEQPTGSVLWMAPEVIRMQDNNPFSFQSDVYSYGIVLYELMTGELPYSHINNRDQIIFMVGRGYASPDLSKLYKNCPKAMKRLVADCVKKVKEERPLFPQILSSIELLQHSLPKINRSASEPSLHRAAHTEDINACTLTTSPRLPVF
UniProt P15056, whole entry: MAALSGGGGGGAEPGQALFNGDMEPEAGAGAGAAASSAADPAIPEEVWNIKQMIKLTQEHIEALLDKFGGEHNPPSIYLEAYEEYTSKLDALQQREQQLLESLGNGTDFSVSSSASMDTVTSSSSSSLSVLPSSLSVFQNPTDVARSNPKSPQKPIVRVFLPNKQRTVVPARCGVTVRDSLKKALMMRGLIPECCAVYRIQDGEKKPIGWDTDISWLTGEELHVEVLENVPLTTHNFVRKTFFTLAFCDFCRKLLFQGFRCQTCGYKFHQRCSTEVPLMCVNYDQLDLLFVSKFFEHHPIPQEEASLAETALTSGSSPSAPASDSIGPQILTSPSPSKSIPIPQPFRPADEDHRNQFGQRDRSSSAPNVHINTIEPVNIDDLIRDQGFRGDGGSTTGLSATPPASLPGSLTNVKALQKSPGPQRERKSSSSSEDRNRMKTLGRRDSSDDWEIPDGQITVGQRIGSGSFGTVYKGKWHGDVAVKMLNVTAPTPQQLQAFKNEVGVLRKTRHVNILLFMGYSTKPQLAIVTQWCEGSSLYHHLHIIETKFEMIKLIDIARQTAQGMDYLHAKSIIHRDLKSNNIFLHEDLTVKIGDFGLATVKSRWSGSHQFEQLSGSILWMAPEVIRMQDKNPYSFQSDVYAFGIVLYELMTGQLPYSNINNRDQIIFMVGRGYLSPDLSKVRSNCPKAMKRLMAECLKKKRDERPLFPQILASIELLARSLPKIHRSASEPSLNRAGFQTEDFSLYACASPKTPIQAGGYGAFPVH

How the values were obtained:
[1] = tested on: pERK in HCT-116 cells (KRAS G13D); experiment: Phospho-ERK inhibition (AlphaLISA SureFire Ultra p-ERK 1/2), HCT116
Protocol: All cancer cell lines (A375, A101D, A2058, RKO, HT29 SK-MEL 30, IPC298, HepG2, HCT-116, Lovo, SWV620, SW480, NCI-H358, NCI-H2122, Calu-6, NCIH2087, NCIH1755, NCIH1666 and Mewo) were obtained from ATCC and cultured in RPMI-1640 medium (Gibco) supplemented with 5% heat inactivated fetal bovine serum (FBS, Wisent) at 37° C. under 5% CO2. Cells were maintained in T175 flasks (Greiner). They were passaged by removing the culture medium, washing once in 10 mL of room temperature Phosphate Buffered Saline (PBS; Wisent) and incubating at 37° C. with 2 mL of 0.05% Trypsin (Thermo-Fisher). Trypsin was then inactivated by adding complete growth medium and the cells were then replated in a T175 culture dish at the appropriate dilution. All cell lines were routinely tested for mycoplasma contamination. Tissue type and mutational status of each cell line can be found in Table B.
AlphaLISA® SureFire® Ultra™ p-ERK 1/2 (Thr202/Tyr204) analysis was conducted on cells plated in 100 μL of complete RPMI-1640 growth medium in 96-well flat-bottomed transparent dishes (Costar) at a density indicated in Table C. Cells were maintained overnight at 37° C. under 5% CO2 before treatment with compounds' dilution series for one hour. The cell density in cells/cm^2 corresponds to cell number divided by the area of one well of a 96-well plate ([…]). […]
After treatment, media was removed and cells were lysed in 50 μL of 1× AlphaScreen Ultra Lysis Buffer (Perkin Elmer). […] After completion of the reactions, the signals were recorded on an EnVision plate reader (Perkin Elmer) using built in AlphaLISA® settings.
The effect of each compound dilution on the pERK signal was expressed in % inhibition and calculated as follows. […]
The ability of each compound to inhibit pERK signal was expressed as an IC50 value obtained by plotting the inhibition values for each data point of a dilution series and fitting the obtained curves using a log(agonist) versus response-variable slope (four parameters) function using GraphPadPrism (V7.0) or Dotmatics Screening Ultra platform. […]

CRAF = CRAF (Homo sapiens, UniProt P04049); experiment: CRAF kinase activity assay (ADP-Glo); conditions: read-out: Kinase IC50 (nM), CRAF biochemical kinase assay
BRAF = BRAF (Homo sapiens (Human), UniProt P15056); experiment: BRAF kinase activity assay (ADP-Glo); conditions: read-out: Kinase IC50 (nM), BRAF biochemical kinase assay

O=S(=O)(Nc1ccc(F)c(Nc2ncnc3ccc(-c4cncs4)nc23)c1F)c1cccc(Cl)c1Cl
IC50 ([1]; read-out: HCT116 pERK IC50, class symbol): < 0.5 µM

O=S(=O)(Nc1ccc(F)c(Nc2ncnc3ccc(-n4cnc5c(N6CCN(CCO)CC6)cccc54)nc23)c1F)c1cccc(Cl)c1Cl [586]
IC50 (CRAF): < 10 nM
HCT116 pERK % Ymin (lowest value of the IC50 curve) ([1]; Ymin above −20% = minimal or no paradoxical activation): −3%
IC50 ([1]; read-out: HCT116 pERK IC50): < 0.5 µM
IC50 (BRAF): < 1 nM
